Test results published in patent publication US20030027835A1 (priority 1999, published 2003).
“And” between values parts separate entries of the source, which are not always exact repeats. Equal entries are not always repeated.

Test system: sodium currents in rat dorsal root ganglia (DRG) neurons
Type: cell-based
Settings: maleate

CCC(COC(=O)c1cc(OC)c(OC)c(OC)c1)(c1ccccc1)N(C)C.O=C(O)/C=C\C(=O)O (racemic) [Trimebutine, 2-dimethylamino-2-phenylbutyl 3,4,5-trimethoxybenzoate hydrogen maleate]
Hill coefficient nH, block of Na+ current: 1.09±0.10 and 1.02
